Survivor count and T/C data for 24 molecules are collected here from PubChem BioAssay AID328 (DTP/NCI, 2004).

The test has as its system BDF1 mice, P388 leukemia ip, median survival T/C. Briefly: NCI In Vivo Anticancer Drug Screen. Data for tumor model P388 Leukemia (intraperitoneal) in B6D2F1 (BDF1) mice. The note with it: T/C endpoint: median survival time, higher T/C = longer survival. In short, it runs like this:
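Each value expresses how treatment altered survival: treated-mouse outcome over vehicle-mouse outcome, both groups bearing the transplanted tumour.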

[1] abbreviates: dose: 100.0 mg/kg/injection, schedule: Q04DX003 (ip), vehicle: saline with Tween-80.
Setting [2] is: dose: 200.0 mg/kg/injection, schedule: Q04DX003 (ip), vehicle: saline with Tween-80.
[3] abbreviates: dose: 400.0 mg/kg/injection, schedule: Q04DX003 (ip), vehicle: saline with Tween-80.
The mark [4] stands for this setting: dose: 50.0 mg/kg/injection, schedule: Q01DX009 (ip), vehicle: saline with Tween-80.
[5] abbreviates: dose: 100.0 mg/kg/injection, schedule: Q01DX009 (ip), vehicle: saline with Tween-80.
Setting [6] is: dose: 200.0 mg/kg/injection, schedule: Q01DX009 (ip), vehicle: saline with Tween-80.
Setting [7] is: dose: 400.0 mg/kg/injection, schedule: Q04DX003 (ip), vehicle: saline.
Setting [8] is: dose: 100.0 mg/kg/injection, schedule: Q01DX009 (ip), vehicle: saline.
Where [9] appears, read: dose: 200.0 mg/kg/injection, schedule: Q01DX009 (ip), vehicle: saline.

The list is a part of this screen's results and no random one: it is rich in T/C values a quarter to a half above the control, in often repeated tests (any T/C) and in doses without a T/C. Further doses and runs are listed elsewhere. T/C gives the treated animals as a percentage of the vehicle group. Some doses have a count of surviving animals in place of a T/C: the source files T/C as zero there, which appears to mark a toxic dose or a test without result, not a measured value. Some doses without a T/C left all or most animals alive at the check, yet need not have been tolerated: the source hardly ever lists a survival T/C far under the control, and the zero likely stands for such cases as well. Counts of survivors are from the toxicity check (mostly the fifth day) where no day follows; animals may have died later. Schedule codes are those of the source, read here as Q, the interval in days (D) or hours (H), X, the number of doses. Some entries hold several experiments; the results are listed from low to high. Where survival is the endpoint, the PubChem record calls one and a half times the control and up active, and a quarter to a half above the control has no call in these data; cut-offs in other NCI protocols can differ.

As to `O=C(Cn1cc(F)c(=O)[nH]c1=O)N1CCC2(CC1)SSC1(CCN(C(=O)Cn3cc(F)c(=O)[nH]c3=O)CC1)S2`, the survivor count (dose: 400.0 mg/kg/injection, schedule: Q01DX009 (ip), vehicle: saline) is reported as 3 of 6.
`Cc1ccc(NC(=O)N(CCCl)N=O)c(C)c1`: the T/C (dose: 16.5 mg/kg/injection, schedule: Q04DX003 (ip), vehicle: other) was 136 % of control; the T/C (dose: 25.0 mg/kg/injection, schedule: Q04DX003 (ip), vehicle: other) was 145 % of control; the T/C (dose: 37.5 mg/kg/injection, schedule: Q04DX003 (ip), vehicle: other) is 131 % of control.
Consider `CC1=C(Br)C(=O)C(Br)=C(Br)C1=O`, for which the survivor count is, setting by setting: (dose: 80.0 mg/kg/injection, schedule: Q01DX009 (ip), vehicle: Klucel (hydroxypropylcellulose) (HPC)) 4 of 6; (dose: 225.0 mg/kg/injection, schedule: Q01DX001 (ip), vehicle: Klucel (hydroxypropylcellulose) (HPC)) 0 of 6; (dose: 340.0 mg/kg/injection, schedule: Q01DX001 (ip), vehicle: Klucel (hydroxypropylcellulose) (HPC)) 0 of 6.
Consider `CCC[CH2][Hg][O]C(C)=O`, for which the T/C is 145 % of control (dose: 3.3 mg/kg/injection, schedule: Q01DX009 (ip), vehicle: other); 145 % of control (dose: 5.0 mg/kg/injection, schedule: Q01DX009 (ip), vehicle: other); 125 % of control (dose: 6.25 mg/kg/injection, schedule: Q01DX009 (ip), vehicle: saline with Tween-80); 142 % of control (dose: 9.37 mg/kg/injection, schedule: Q01DX009 (ip), vehicle: saline); 125 % of control (dose: 12.5 mg/kg/injection, schedule: Q04DX003 (ip), vehicle: saline sonified). Moreover, for the setting “dose: 7.5 mg/kg/injection, schedule: Q01DX009 (ip), vehicle: other”, the survivor count is listed as 4 of 6.
With `COc1cc(C=Nc2cccc(Br)c2)ccc1N(CCCl)CCCl`, the T/C (dose: 18.7 mg/kg/injection, schedule: Q04DX003 (ip), vehicle: saline with Tween-80) is 145 % of control. Also, the survivor count is, setting by setting: (dose: 50.0 mg/kg/injection, schedule: Q04DX003 (ip), vehicle: other) 3 of 6; (dose: 100.0 mg/kg/injection, schedule: Q04DX003 (ip), vehicle: other) 0 of 6; (dose: 200.0 mg/kg/injection, schedule: Q01DX009 (ip), vehicle: saline sonified) 5 of 6; (dose: 400.0 mg/kg/injection, schedule: Q01DX009 (ip), vehicle: saline sonified) 1 of 6.
Consider `Cc1nn2c(=O)[nH]cnc2c1Cl`, for which the survivor count runs as follows: under setting [1], 6 of 6; (dose: 400.0 mg/kg/injection, schedule: Q01DX009 (ip), vehicle: saline with Tween-80) 3 of 6.
As to `CN(C)CC(=O)c1ccc(O)c(O)c1`, the T/C was 140 % of control (dose: 200.0 mg/kg/injection, schedule: Q01DX010 (ip), vehicle: saline); 127 % of control (dose: 450.0 mg/kg/injection, schedule: Q01DX010 (ip), vehicle: saline); 140 % of control (dose: 675.0 mg/kg/injection, schedule: Q01DX010 (ip), vehicle: saline).
For the molecule `CCOC(=O)CC(C)=O.[Cu+2]`, the survivor count (dose: 25.0 mg/kg/injection, schedule: Q01DX009 (ip), vehicle: Klucel (hydroxypropylcellulose) (HPC)) is 4 of 6.
Take `Nc1ccc(/C=C2\C=Cc3ccccc32)cc1`: under “dose: 75.0 mg/kg/injection, schedule: Q01DX009 (ip), vehicle: saline with Tween-80”, the survivor count is listed as 6 of 6.
For `c1ccc(CCN2COc3c(ccc4cccnc34)C2)cc1`, the survivor count is reported as 5 of 6 under setting [2] and 0 of 6 under setting [3].
For `Clc1nc2nsnc2nc1Cl`, the survivor count is 6 of 6 under setting [1] and 4 of 6 under setting [3].
As for `CC1(C)OCC(/C=C/C=N/Nc2ccc([N+](=O)[O-])cc2)O1` (stereo not drawn), the survivor count (dose: 400.0 mg/kg/injection, schedule: Q01DX001 (ip), vehicle: saline with Tween-80) is recorded as 3 of 6.
On to `CN=C(NC)c1ccc(NC(=O)c2ccc(C(=O)Nc3ccc(C(=NC)NC)cc3)cc2)cc1`, for which the survivor count by setting is: under setting [4], 6 of 6; under setting [5], 6 of 6; under setting [6], 2 of 6; under setting [7], 6 of 6.
As to `BrC1CC(Br)c2c1c1c(c3c2C(Br)CC3Br)C(Br)CC1Br` (stereo not drawn), the T/C is, setting by setting: under setting [4], 137 % of control; under setting [5], 146 % of control.
Turning to `C#CC[N+]1=CN(c2ccc(C)cc2)Cc2cc(C)ccc21`, the T/C (dose: 150.0 mg/kg/injection, schedule: Q04DX003 (ip), vehicle: Klucel (hydroxypropylcellulose) (HPC)) was 141 % of control. The survivor count by setting is: (dose: 200.0 mg/kg/injection, schedule: Q01DX009 (ip), vehicle: Klucel (hydroxypropylcellulose) (HPC)) 3 of 6; (dose: 225.0 mg/kg/injection, schedule: Q04DX003 (ip), vehicle: Klucel (hydroxypropylcellulose) (HPC)) 4 of 6 and 5 of 6; (dose: 335.0 mg/kg/injection, schedule: Q04DX003 (ip), vehicle: Klucel (hydroxypropylcellulose) (HPC)) 4 of 6.
Consider `CC(CCCN)Nc1cc2c(c3cccnc13)OCCO2` (stereo not drawn), for which the survivor count under setting [4] is on record as 3 of 6, the survivor count under setting [5] is 0 of 6 and the survivor count under setting [6] is reported as 0 of 6.
For `CC(=O)CC(C)=O.CC(=O)CC(C)=O.CC(=O)CC(C)=O.[In]`, the survivor count by setting is: (dose: 50.0 mg/kg/injection, schedule: Q01DX009 (ip), vehicle: saline) 5 of 6; under setting [8], 3 of 6; under setting [9], 0 of 6; under setting [7], 0 of 6.
Take `CC1(C)N=C(N)N=C(N)N1c1ccc(OCCCNC(=O)Nc2cccc(S(=O)(=O)F)c2)c(Cl)c1`: the T/C (dose: 12.5 mg/kg/injection, schedule: Q04DX003 (ip), vehicle: saline with Tween-80) is 133 % of control. In addition, the survivor count (dose: 150.0 mg/kg/injection, schedule: Q01DX009 (ip), vehicle: saline with Tween-80) is reported as 4 of 6.
On to `COc1ccccc1CC(C)N` (stereo not drawn), for which the survivor count (dose: 40.0 mg/kg/injection, schedule: Q01DX009 (ip), vehicle: saline with Tween-80) is reported as 6 of 6.
`O=C(NO)Nc1nc(Cl)c(Cl)nc1Cl`: the T/C (dose: 25.0 mg/kg/injection, schedule: Q04DX003 (ip), vehicle: saline with Tween-80) was 134 % of control; the T/C (dose: 50.0 mg/kg/injection, schedule: Q01DX009 (ip), vehicle: water) is 125 % of control; the T/C (dose: 50.0 mg/kg/injection, schedule: Q04DX003 (ip), vehicle: saline with Tween-80) was 144 % of control; the T/C under setting [1] is 149 % of control; the T/C (dose: 100.0 mg/kg/injection, schedule: Q04DX003 (ip), vehicle: water) is 148 % of control. In addition, the survivor count is, setting by setting: (dose: 200.0 mg/kg/injection, schedule: Q01DX009 (ip), vehicle: water) 4 of 6; under setting [2], 5 of 6.
In the case of `CCOP1(=O)N(C)CCN1C`, the survivor count by setting is: under setting [8], 5 of 6; under setting [9], 1 of 6.
Turning to `COc1ccccc1/C=C(/C)[N+](=O)[O-]`, the T/C is 145 % of control (dose: 22.0 mg/kg/injection, schedule: Q01DX010 (ip), vehicle: carboxymethylcellulose (CMC)) and 135 % of control (dose: 50.0 mg/kg/injection, schedule: Q01DX010 (ip), vehicle: carboxymethylcellulose (CMC)).
With `OC1CC2C3C4C1C1C2C3C41` (stereo not drawn), the survivor count (dose: 400.0 mg/kg/injection, schedule: Q01DX001 (ip), vehicle: saline) is on record as 4 of 6.
Consider `Oc1c(Cl)c(Cl)c(Cl)c2cccnc12`, for which the survivor count (dose: 25.0 mg/kg/injection, schedule: Q01DX009 (ip), vehicle: saline with Tween-80) was 1 of 6.
